# Cleaved PARP after 72 h of treatment

Data from the primary screen of doi:10.1371/journal.pone.0140310, rounded.

Compounds and concentrations:
PLX4720: CCCS(=O)(=O)Nc1ccc(F)c(C(=O)c2c[nH]c3ncc(Cl)cc23)c1F at 0.4 µM
lenalidomide: Nc1cccc2c1CN(C1CCC(=O)NC1=O)C2=O (stereo not drawn) at 5 µM
VX-702: NC(=O)c1ccc(N(C(N)=O)c2c(F)cccc2F)nc1-c1ccc(F)cc1F at 2 µM
XAV939: Oc1nc(-c2ccc(C(F)(F)F)cc2)nc2c1CSCC2 at 10 µM
STA-4783: CN(NC(=O)CC(=O)NN(C)C(=S)c1ccccc1)C(=S)c1ccccc1 at 0.03 µM
OSU-03012: NCC(=O)Nc1ccc(-n2nc(C(F)(F)F)cc2-c2ccc3c(ccc4ccccc43)c2)cc1 at 5 µM
perifosine: CCCCCCCCCCCCCCCCCCOP(=O)([O-])OC1CC[N+](C)(C)CC1 at 2 µM
nutlin-3: COc1ccc(C2=N[C@@H](c3ccc(Cl)cc3)[C@@H](c3ccc(Cl)cc3)N2C(=O)N2CCNC(=O)C2)c(OC(C)C)c1 at 0.5 µM
tipifarnib: Cn1cncc1[C@@](N)(c1ccc(Cl)cc1)c1ccc2c(c1)c(-c1cccc(Cl)c1)cc(=O)n2C at 0.05 µM
PF-562271: CN(c1ncccc1CNc1nc(Nc2ccc3c(c2)CC(=O)N3)ncc1C(F)(F)F)S(C)(=O)=O at 0.4 µM

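The test systems are human melanoma cell lines, treated with a pair of drugs for 72 h and then stained and imaged. Values are the share of nuclei positive for cleaved PARP as a percentage of the same share in the DMSO control: 100 is the control level, higher means more apoptosis. Every drug was used at one fixed concentration, the higher of two screened. These are primary screening values without error estimates. Basal and induced levels differ widely between cell lines.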 Only some of the drugs and lines screened are listed, without regard to their results. A dash means that no value is listed here.

Combination	COLO 829	LB2518-MEL	A101D	RVH-421	501mel	A375
XAV939 and STA-4783	89.9	545	58.2	143	595	55.4
perifosine and tipifarnib	134	-	95.0	134	-	-
PF-562271 and XAV939	145	60.8	85.7	72.6	111	104
PLX4720 and tipifarnib	168	122	224	109	-	-
OSU-03012 and lenalidomide	265	122	377	54.9	-	-
PF-562271 and perifosine	128	142	79.5	31.9	-	56.2
PLX4720 and STA-4783	536	410	113	285	-	-
VX-702 and lenalidomide	142	106	28.6	121	-	33.7
VX-702 and STA-4783	210	785	2130	203	-	-
nutlin-3 and XAV939	92.1	69.7	113	32.7	32.0	143
PF-562271 and STA-4783	607	752	116	84.4	-	-
VX-702 and tipifarnib	98.3	77.0	256	64.7	-	-
tipifarnib and lenalidomide	85.9	60.2	40.7	88.4	-	-
perifosine and STA-4783	101	189	175	92.1	-	-
lenalidomide and perifosine	85.3	186	86.3	126	-	30.8
perifosine and OSU-03012	173	58.4	131	44.4	-	-
XAV939 and PLX4720	130	73.8	137	446	44.0	123
PF-562271 and OSU-03012	238	67.8	49.0	97.9	-	-
PF-562271 and VX-702	182	114	91.3	51.7	-	83.9
XAV939 and lenalidomide	230	82.3	117	53.4	42.2	64.6
STA-4783 and OSU-03012	149	388	625	143	-	-
XAV939 and VX-702	118	-	60.4	40.5	-	60.6
perifosine and nutlin-3	109	236	196	92.8	-	419
nutlin-3 and PLX4720	185	82.9	94.2	150	-	239
PLX4720 and perifosine	309	108	240	71.7	-	160
PF-562271 and lenalidomide	258	74.2	86.5	147	-	153

The last 2 entries again:

| Combination | COLO 829 | LB2518-MEL | A101D | RVH-421 | 501mel | A375 |
|---|---|---|---|---|---|---|
| PLX4720 and perifosine | 309 | 108 | 240 | 71.7 | - | 160 |
| PF-562271 and lenalidomide | 258 | 74.2 | 86.5 | 147 | - | 153 |